The assay concerns the target T1, Gasdermin E full-length (human (endogenous in HaCaT)) (UniProt O60443).
T1 sequence: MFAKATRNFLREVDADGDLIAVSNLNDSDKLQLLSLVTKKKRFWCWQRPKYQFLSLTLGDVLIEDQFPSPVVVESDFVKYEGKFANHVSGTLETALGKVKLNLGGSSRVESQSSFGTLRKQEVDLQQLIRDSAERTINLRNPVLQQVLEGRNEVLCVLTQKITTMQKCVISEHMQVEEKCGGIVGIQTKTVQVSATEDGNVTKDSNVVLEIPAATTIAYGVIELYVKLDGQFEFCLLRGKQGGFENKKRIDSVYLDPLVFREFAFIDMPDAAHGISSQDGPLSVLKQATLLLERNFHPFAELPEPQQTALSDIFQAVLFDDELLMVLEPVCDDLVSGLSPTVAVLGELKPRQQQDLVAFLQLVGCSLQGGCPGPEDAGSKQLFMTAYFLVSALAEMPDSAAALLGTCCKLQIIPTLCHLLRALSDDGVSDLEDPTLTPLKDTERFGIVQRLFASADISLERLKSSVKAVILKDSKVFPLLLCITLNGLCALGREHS
As to the kind of experiment: co-IP; cell lysate incubated with anti-GSDME antibody (ab221843) or normal IgG at 4 °C overnight, Protein A+G agarose 1 h at room temperature, Western blot; cells with or without M5 cytokine stimulation.

The chains behind the UniProt entries cited, without tags or fusion partners.
UniProt Q04206: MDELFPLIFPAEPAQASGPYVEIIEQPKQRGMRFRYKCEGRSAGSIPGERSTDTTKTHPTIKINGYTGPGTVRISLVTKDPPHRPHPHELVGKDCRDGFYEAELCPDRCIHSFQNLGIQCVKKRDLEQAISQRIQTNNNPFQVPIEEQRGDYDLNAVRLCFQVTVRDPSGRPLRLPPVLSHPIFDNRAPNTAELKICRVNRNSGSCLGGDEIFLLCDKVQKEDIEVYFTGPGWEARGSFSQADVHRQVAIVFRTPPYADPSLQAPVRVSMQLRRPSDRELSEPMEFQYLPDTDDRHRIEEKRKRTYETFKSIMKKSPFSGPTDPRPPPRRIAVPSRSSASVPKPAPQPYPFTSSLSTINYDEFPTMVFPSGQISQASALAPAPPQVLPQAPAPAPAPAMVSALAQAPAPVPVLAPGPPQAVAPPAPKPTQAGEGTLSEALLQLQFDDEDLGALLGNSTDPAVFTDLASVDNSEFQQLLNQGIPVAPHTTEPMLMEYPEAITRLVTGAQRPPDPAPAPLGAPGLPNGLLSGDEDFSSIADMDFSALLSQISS
UniProt P05412: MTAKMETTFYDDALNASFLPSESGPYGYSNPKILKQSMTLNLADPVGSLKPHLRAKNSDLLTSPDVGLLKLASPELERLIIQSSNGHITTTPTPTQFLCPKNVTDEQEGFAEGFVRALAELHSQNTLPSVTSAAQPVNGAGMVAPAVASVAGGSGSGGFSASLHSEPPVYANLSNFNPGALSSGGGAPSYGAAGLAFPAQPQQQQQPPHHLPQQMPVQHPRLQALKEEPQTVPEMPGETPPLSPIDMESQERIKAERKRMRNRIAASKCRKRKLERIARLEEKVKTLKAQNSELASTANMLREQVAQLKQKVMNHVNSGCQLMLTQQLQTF

No constants are given. Whether binding was seen depends on the method and setting. In cells and extracts the contact can be indirect. Some results given as binding are weak or reduced against the parent protein; the word gives no strength.

For the substance NF-κB p65 (from UniProt Q04206 1-551), the binding entry is “binds”.

As for c-jun (from UniProt P05412 1-331), the binding result is on record as “binds”.
